Consider 24 sequences from publication PMC8384837.

Some of the results follow. At the low end of the ranking the order means little. Where only a bound is given, the exact number is not on record here.

For the first test, the target named is T1, PUM1 PUF domain R1-QFR R2-VFQ R7-NPG S863Q + R864F + Q867R + N899V + Y900F + S1079N + N1080P + E1083G (UniProt Q14671).
T1 sequence: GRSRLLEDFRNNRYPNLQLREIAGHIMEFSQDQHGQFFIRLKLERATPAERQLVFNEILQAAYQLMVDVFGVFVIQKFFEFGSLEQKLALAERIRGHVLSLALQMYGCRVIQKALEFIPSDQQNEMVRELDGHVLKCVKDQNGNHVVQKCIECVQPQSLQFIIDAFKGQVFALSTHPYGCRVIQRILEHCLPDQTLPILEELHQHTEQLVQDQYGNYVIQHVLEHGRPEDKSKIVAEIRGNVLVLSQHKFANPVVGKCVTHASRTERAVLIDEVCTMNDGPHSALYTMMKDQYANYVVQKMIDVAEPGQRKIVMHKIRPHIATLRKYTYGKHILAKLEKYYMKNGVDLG
The following applies: yeast three-hybrid, YBZ-1, SC-Leu-His + 0.5 mM 3-AT, 4 days.
Take “GGCUAGAACUAGUGGAUCCCCCGGCGCCCGGCGGCUCGAGCCCGGGUAAGAUGUCGAGGUCUGCAUGCCGCCGGGCGCCAUGCCUGCAGGUCGACUCUAGAAAACAUG”: the binding signal (log2 enrichment (interaction score)) is -5.7.
For “GGCUAGAACUAGUGGAUCCCCCGGCGCCCGGCGGCUCGAGCCCGGGUAAGGGGAAUUUGUCUGCAUGCCGCCGGGCGCCAUGCCUGCAGGUCGACUCUAGAAAACAUG”, the binding signal (log2 enrichment (interaction score)) is -5.46.
On the same count and under the same terms, then “GGCUAGAACUAGUGGAUCCCCCGGCGCCCGGCGGCUCGAGCCCGGGUAAGUGUCAGUCGUCUGCAUGCCGCCGGGCGCCAUGCCUGCAGGUCGACUCUAGAAAACAUG”, with -6.23; and “GGCUAGAACUAGUGGAUCCCCCGGCGCCCGGCGGCUCGAGCCCGGGUAAGUUACAGUGGUCUGCAUGCCGCCGGGCGCCAUGCCUGCAGGUCGACUCUAGAAAACAUG”, with -6.33.
Take “GGCUAGAACUAGUGGAUCCCCCGGCGCCCGGCGGCUCGAGCCCGGGUAAGUUUGAGAAGUCUGCAUGCCGCCGGGCGCCAUGCCUGCAGGUCGACUCUAGAAAACAUG”: the binding signal (log2 enrichment (interaction score)) is < -7.02.
On the same count and under the same terms, then “GGCUAGAACUAGUGGAUCCCCCGGCGCCCGGCGGCUCGAGCCCGGGUAAGGUCGCACAGUCUGCAUGCCGCCGGGCGCCAUGCCUGCAGGUCGACUCUAGAAAACAUG”, with < -6.09; and “GGCUAGAACUAGUGGAUCCCCCGGCGCCCGGCGGCUCGAGCCCGGGUAAGUUCGAAACGUCUGCAUGCCGCCGGGCGCCAUGCCUGCAGGUCGACUCUAGAAAACAUG”, with -4.69; and “GGCUAGAACUAGUGGAUCCCCCGGCGCCCGGCGGCUCGAGCCCGGGUAAGUUGCCUUCGUCUGCAUGCCGCCGGGCGCCAUGCCUGCAGGUCGACUCUAGAAAACAUG”, with -5.92.
Same read-out and setting: for “GGCUAGAACUAGUGGAUCCCCCGGCGCCCGGCGGCUCGAGCCCGGGUAAGUUUUCUGAGUCUGCAUGCCGCCGGGCGCCAUGCCUGCAGGUCGACUCUAGAAAACAUG” the value was -5.93; for “GGCUAGAACUAGUGGAUCCCCCGGCGCCCGGCGGCUCGAGCCCGGGUAAGUGAUAAUCGUCUGCAUGCCGCCGGGCGCCAUGCCUGCAGGUCGACUCUAGAAAACAUG”, -6.16; for “GGCUAGAACUAGUGGAUCCCCCGGCGCCCGGCGGCUCGAGCCCGGGUAAGUGUACGUCGUCUGCAUGCCGCCGGGCGCCAUGCCUGCAGGUCGACUCUAGAAAACAUG”, -5.82.
Same read-out and setting: for “GGCUAGAACUAGUGGAUCCCCCGGCGCCCGGCGGCUCGAGCCCGGGUAAGUUGGCAAAGUCUGCAUGCCGCCGGGCGCCAUGCCUGCAGGUCGACUCUAGAAAACAUG” the value was -5.87; for “GGCUAGAACUAGUGGAUCCCCCGGCGCCCGGCGGCUCGAGCCCGGGUAAGUGUAAAAAGUCUGCAUGCCGCCGGGCGCCAUGCCUGCAGGUCGACUCUAGAAAACAUG”, -5.61; for “GGCUAGAACUAGUGGAUCCCCCGGCGCCCGGCGGCUCGAGCCCGGGUAAGUUUAUAGCGUCUGCAUGCCGCCGGGCGCCAUGCCUGCAGGUCGACUCUAGAAAACAUG”, < -7.08.
As to “GGCUAGAACUAGUGGAUCCCCCGGCGCCCGGCGGCUCGAGCCCGGGUAAGUAGGAGCUGUCUGCAUGCCGCCGGGCGCCAUGCCUGCAGGUCGACUCUAGAAAACAUG”, the binding signal (log2 enrichment (interaction score)) is -6.46.
Still for that read-out and setting: then “GGCUAGAACUAGUGGAUCCCCCGGCGCCCGGCGGCUCGAGCCCGGGUAAGGUUAAGUGGUCUGCAUGCCGCCGGGCGCCAUGCCUGCAGGUCGACUCUAGAAAACAUG”, with -6.4; and “GGCUAGAACUAGUGGAUCCCCCGGCGCCCGGCGGCUCGAGCCCGGGUAAGCUUUUGUGGUCUGCAUGCCGCCGGGCGCCAUGCCUGCAGGUCGACUCUAGAAAACAUG”, with -5.59.
In the case of “GGCUAGAACUAGUGGAUCCCCCGGCGCCCGGCGGCUCGAGCCCGGGUAAGUCGAAGACGUCUGCAUGCCGCCGGGCGCCAUGCCUGCAGGUCGACUCUAGAAAACAUG”, the binding signal (log2 enrichment (interaction score)) was -4.6.
On the same count and under the same terms, then “GGCUAGAACUAGUGGAUCCCCCGGCGCCCGGCGGCUCGAGCCCGGGUAAGUUUAGCUCGUCUGCAUGCCGCCGGGCGCCAUGCCUGCAGGUCGACUCUAGAAAACAUG”, with < -6.73; and “GGCUAGAACUAGUGGAUCCCCCGGCGCCCGGCGGCUCGAGCCCGGGUAAGCUGGAUAAGUCUGCAUGCCGCCGGGCGCCAUGCCUGCAGGUCGACUCUAGAAAACAUG”, with -5.24.
For the sequence “GGCUAGAACUAGUGGAUCCCCCGGCGCCCGGCGGCUCGAGCCCGGGUAAGGUCAGAACGUCUGCAUGCCGCCGGGCGCCAUGCCUGCAGGUCGACUCUAGAAAACAUG”, the binding signal (log2 enrichment (interaction score)) is < -6.42.
On the same count and under the same terms, then “GGCUAGAACUAGUGGAUCCCCCGGCGCCCGGCGGCUCGAGCCCGGGUAAGUUUAUAAUGUCUGCAUGCCGCCGGGCGCCAUGCCUGCAGGUCGACUCUAGAAAACAUG”, with < -6.52; and “GGCUAGAACUAGUGGAUCCCCCGGCGCCCGGCGGCUCGAGCCCGGGUAAGUGGUCUACGUCUGCAUGCCGCCGGGCGCCAUGCCUGCAGGUCGACUCUAGAAAACAUG”, with -6.59.

The target of a further test is T2, PUM1 PUF domain R2-VFQ R3-THE R4-TFR N899V + Y900F + C935T + R936H + Q939E + N971T + H972F + Q975R (UniProt Q14671).
T2 sequence: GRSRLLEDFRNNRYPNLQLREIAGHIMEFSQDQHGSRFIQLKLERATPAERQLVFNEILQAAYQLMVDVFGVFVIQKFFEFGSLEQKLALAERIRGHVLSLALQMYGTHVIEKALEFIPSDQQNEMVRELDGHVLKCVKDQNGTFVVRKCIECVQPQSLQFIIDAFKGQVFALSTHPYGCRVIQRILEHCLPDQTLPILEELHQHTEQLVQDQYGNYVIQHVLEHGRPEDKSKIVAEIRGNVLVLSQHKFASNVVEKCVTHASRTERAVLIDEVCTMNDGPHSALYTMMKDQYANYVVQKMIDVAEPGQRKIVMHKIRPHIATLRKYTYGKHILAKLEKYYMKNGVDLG
The conditions noted are these: yeast three-hybrid, YBZ-1, SC-Leu-His + 0.5 mM 3-AT, 4 days.
Regarding “GGCUAGAACUAGUGGAUCCCCCGGCGCCCGGCGGCUCGAGCCCGGGUAAGUUCAAUAAGUCUGCAUGCCGCCGGGCGCCAUGCCUGCAGGUCGACUCUAGAAAACAUG”, the binding signal (log2 enrichment (interaction score)) is -5.68.
